This is an account of results in article PMC3536794.

The chains behind the UniProt entries cited, without tags or fusion partners. Where a name states a change or a piece, a line headed by the entry shows the natural chain unless it says otherwise.
UniProt Q9Y2W7: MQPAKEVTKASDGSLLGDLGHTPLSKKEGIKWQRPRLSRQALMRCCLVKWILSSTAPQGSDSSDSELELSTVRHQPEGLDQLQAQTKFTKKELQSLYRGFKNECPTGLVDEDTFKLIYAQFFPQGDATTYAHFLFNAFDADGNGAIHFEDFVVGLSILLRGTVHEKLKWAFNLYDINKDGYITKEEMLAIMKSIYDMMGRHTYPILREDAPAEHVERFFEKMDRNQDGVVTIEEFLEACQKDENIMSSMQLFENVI

Construct, isoform or probe ends are uncertain for at least one entry. Results from cells or extracts need not show a direct contact. For part of these data: A weaker result is weaker than the reference pair of the same experiment.

For series [1], the target named is DREAM (Downstream Regulatory Element Antagonist Modulator) (UniProt Q9Y2W7). Nature of the series: EMSA. Particulars: 5 µg BeWo nuclear fraction, 50 ng probe, 0.1 µg poly d(I-C), 10 µL; 750 mM KCl, 2.5 mM EDTA; protein in a lysate after overexpression; protein details: His; label: 3' biotin.
Series [2] shares this target. Nature of the series: EMSA, supershift, competition. Conditions: two bands, outcompeted by unlabeled probe 1:100 and 1:1000, weaker with DREAM siRNA extract; 5 µg BeWo nuclear fraction, 50 ng probe, 0.1 µg poly d(I-C), 10 µL; 750 mM KCl, 2.5 mM EDTA; protein in a lysate after overexpression; protein details: His; label: 3' biotin.

In the case of “CGACAGGTGCTGATCCCTCGTCGTGTTGTCCAGGATATTGTCG (double strand) [GCM1 43 bp Mutation 4]”, the binding result in series [1] is “binds more weakly”.

On to “CGATAGGTGCTTATCCCTCTTCGTGTTGTCCAGGATATTTTCG / CGAAAATATCCTGGACAACACGAAGAGGGATAAGAACCTATCG [GCM1 43 bp Mutation 5]”, for which the binding result in series [1] is on record as “binds more weakly”.

Regarding “TGACAGGTACTGATCCCTCGTCATGTTGTCCAGGATATTGTCA (double strand) [GCM1 43 bp Control probe]”, the binding result in series [2] is “binds”.

On to “TGACAGGTACTGATCCCTCGTCGTGTTGTCCAGGATATTGTCA (double strand) [GCM1 43 bp Mutation 1]”, for which the binding result in series [1] is on record as “binds”.

Regarding “TGACAGGTACTGATCCCTCGTCGTGTTGTCCAGGATATTGTCG (double strand) [GCM1 43 bp Mutation 2]”, the binding result in series [1] was “binds”.

In the case of “TGACAGGTGCTGATCCCTCGTCATGTTGTCCAGGATATTGTCA (double strand) [GCM1 43 bp Mutation 3]”, the binding result in series [1] is given as “binds”.
